Patent US20230265131A1
Results are given in words; binding and its absence hold for the method and conditions named. Some binding calls cover weakened binding; strength is not graded here. Where a sequence is shown, tags or fusion partners need not be part of it.

Protein sequences, listed by entry. Tags and fused reporters are not part of them.
UniProt O60603: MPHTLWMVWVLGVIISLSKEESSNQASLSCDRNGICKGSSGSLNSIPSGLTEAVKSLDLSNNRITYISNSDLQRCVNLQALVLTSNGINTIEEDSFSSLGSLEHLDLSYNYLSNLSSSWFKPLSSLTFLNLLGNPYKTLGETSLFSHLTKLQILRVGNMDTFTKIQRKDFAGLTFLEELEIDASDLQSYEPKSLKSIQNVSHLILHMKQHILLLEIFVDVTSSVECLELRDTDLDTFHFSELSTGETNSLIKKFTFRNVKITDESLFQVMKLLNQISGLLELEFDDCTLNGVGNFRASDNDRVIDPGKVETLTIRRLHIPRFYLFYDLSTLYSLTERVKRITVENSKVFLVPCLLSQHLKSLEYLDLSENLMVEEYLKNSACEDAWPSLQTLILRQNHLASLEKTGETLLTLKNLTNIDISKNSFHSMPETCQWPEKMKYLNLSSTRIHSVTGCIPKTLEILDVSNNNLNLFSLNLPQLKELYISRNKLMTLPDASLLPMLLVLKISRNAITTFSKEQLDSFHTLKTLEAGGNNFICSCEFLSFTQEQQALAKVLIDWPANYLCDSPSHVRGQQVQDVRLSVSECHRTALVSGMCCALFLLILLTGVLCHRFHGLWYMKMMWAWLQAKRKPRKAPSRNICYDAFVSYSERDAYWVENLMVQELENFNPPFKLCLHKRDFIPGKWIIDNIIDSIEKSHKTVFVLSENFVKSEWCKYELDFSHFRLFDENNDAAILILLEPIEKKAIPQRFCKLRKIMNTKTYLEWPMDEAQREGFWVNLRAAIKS

Target: human Toll-like receptor 2 (hTLR2) on HEK-Blue hTLR2 reporter cells (human) (UniProt O60603)
Assay: reporter cell line expressing hTLR2; interaction inferred from the NF-kB/SEAP read-out

B1: Amuc-1100 polypeptide of Akkermansia muciniphila, mature, with added start methionine and C-terminal His-Tag (Example 1 construct) (protein, not shown: small tags and cut ends)
chain: MIVNSKRSELDKKISIAAKEIKSANAAEITPSRSSNEELEKELNRYAKAVGSLETAYKPFLASSALVPTTPTAFQNELKTFRDSLISSCKKKNILITDTSSWLGFQVYSTQAPSVQAASTLGFELKAINSLVNKLAECGLSKFIKVYRPQLPIETPANNPEESDEADQAPWTPMPLEIAFQGDRESVLKAMNAITGMQDYLFTVNSIRIRNERMMPPPIANPAAAKPAAAQPATGAASLTPADEAAAPAAPAIQQVIKPYMGKEQVFVQVSLNLVHFNQPKAQEPSED
  binding: binds
